# In patent US20240082277A1, “MODIFIED ANTIHISTAMINE COMPOSITION AND ANTIVIRAL TREATMENT” (priority 2022, published 2024):
# Where a name gives a salt, the structure may show the parent alone.
# System: SARS-CoV-2 Delta (B.1.617.2)
# Assay: microbe, parasite or virus in culture
# Details: Severe acute respiratory syndrome coronavirus 2, VeroE6/TMPRSS2, read-out: Efficacy (EC50) Delta
smiles,measurement,value
CN(C)CCOC(c1ccccc1)c1ccccc1 [Diphenhydramine hydrochloride],EC50,> 1000 µg/mL
